Some results were stated once for a whole list of compounds, not compound by compound. For at least one compound, name, drawing or mass did not settle the structure.
Test system: antioxidant responsive element (ARE)
Test: ARE luciferase reporter induction in adenovirus-P450-transduced ARE32 (MCF-7/ARE) cells
Format: cell-based, human
Details: BHA 20 μM; for ARE reporter induction (greatest): ARE32 cells, CYP2A6 co-expressed with CYP1A1, 7-EC 100 μM; for induction of the ARE reporter: MCF-7 cells that express human CYP1A1 and CYP2A6, 7-E 100 μM
Description: ARE32 cells were seeded in 24-well plates at 2×10^5 cells per well and cultured overnight. Cells were transduced for 2 h with up to three Adeno-P450s at MOI value of 27 pfu/cell in 0.5 ml of culture medium, after which the medium was removed and replaced with fresh medium. Cells were incubated for an additional 48 h and then were treated with chemicals in serum-free medium for 1 day. Then cells were harvested and lysed. The Luciferase Reporter Assay System (Promega) was used to examine reporter gene activity in cell lysates.
In cell line ARE32, the antioxidant responsive element (ARE), activated by Nrf2, is used to drive a luciferase gene as reporter. A functional ARE is found in the 5′ flanking region of genes encoding NQO1, multiple GST isozymes and many other anticarcinogenic/antioxidant genes. Induction of these genes confers cytoprotection against carcinogenesis and acts to minimize the effects of the toxic insult. Therefore, measurement of ARE induction provides useful information into the particular mechanism of toxicity. […] ARE32 control values are from ARE32 cells without virus infection. ARE32 Transduced values are from ARE32 cells infected with three viruses: Ad3A4.F2A.CPR; Ad2D6(His)CPR; and Ad2A6.F2A.1A1 at a total MOI value of 27.
In further experiments, we examined induction of the ARE reporter in MCF-7 cells expressing CYP3A4 and CPR, CYP2A6 and CPR, CYP2D6 and CPR or CYP2A6 and CYP1A1 by either butylated hydroxyanisole, an antioxidant widely used as a food preservative (BHA-20 μM) or 7-ethoxycoumarin, an antioxidant (7-E-100 μM).
With reference to FIG. 5, expression of the luciferase reporter readout is evaluated in comparison to control MCF-7/ARE cells not expressing P450 transgenes (first bar=1).
Butylated hydroxyanisole (BHA) is an antioxidant used as a food additive (E320). […] We examined induction of the ARE reporter in ARE32 cells expressing CYP3A4 and CPR, CYP2A6 and CPR, CYP2D6 and CPR or CYP2A6 and CYP1A1 by either butylated hydroxyanisole (BHA) at 20 μM or 7-ethoxycoumarin (7-EC) at 100 μM (FIG. 8).

Row | SMILES | ARE reporter induction (greatest) | induction of the ARE reporter
1 | CCOc1ccc2ccc(=O)oc2c1 [7-ethoxycoumarin] | > 35 fold | more than 32 fold
2 | COc1ccc(O)c(C(C)(C)C)c1 [BHA, butylated hydroxyanisole] | > 35 fold | more than 32 fold

Source: patent US20100093017A1, “Metabolically Competent Cell Lines” (CXR Biosciences Limited, priority 2008, published 2010)
